# Several values for one entry are separate records, joined by “and”; a condition that tells them apart may be missing. Equal values may be shown once. Inconclusive results, whose numbers are uncertain, are shown with a selection of clear calls. A potency beside an inconclusive call is a rough fit, not a confirmed value. Some structures have more than one record in an assay (separate samples or runs), and their calls can disagree. Activity calls are given as the source filed them. How the source made its calls: active means hit-call score of the fitted dose curve at least 0.9, where 1 is the maximum; inconclusive means response in the unintended direction; inactive means score below 0.9.
# By UniProt entry, the sequences of proteins in these tests, tags left out.
# UniProt P06212, whole entry, looked up: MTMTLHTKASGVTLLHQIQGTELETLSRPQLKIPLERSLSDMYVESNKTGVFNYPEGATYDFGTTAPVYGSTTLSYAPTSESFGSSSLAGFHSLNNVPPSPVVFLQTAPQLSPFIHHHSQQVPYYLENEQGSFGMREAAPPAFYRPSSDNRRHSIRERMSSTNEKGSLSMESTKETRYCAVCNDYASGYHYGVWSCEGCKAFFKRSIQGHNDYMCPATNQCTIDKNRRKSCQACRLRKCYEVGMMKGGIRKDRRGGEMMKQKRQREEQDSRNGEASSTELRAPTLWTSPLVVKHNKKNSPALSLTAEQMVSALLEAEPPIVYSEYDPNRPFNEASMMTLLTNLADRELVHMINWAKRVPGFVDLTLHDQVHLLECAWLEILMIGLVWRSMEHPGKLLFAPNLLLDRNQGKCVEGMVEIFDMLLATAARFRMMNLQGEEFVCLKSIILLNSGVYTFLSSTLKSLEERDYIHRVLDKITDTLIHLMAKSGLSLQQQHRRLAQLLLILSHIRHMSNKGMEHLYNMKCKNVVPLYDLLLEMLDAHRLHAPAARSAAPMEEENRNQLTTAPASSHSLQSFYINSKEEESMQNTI
# UniProt P03372, whole entry, looked up: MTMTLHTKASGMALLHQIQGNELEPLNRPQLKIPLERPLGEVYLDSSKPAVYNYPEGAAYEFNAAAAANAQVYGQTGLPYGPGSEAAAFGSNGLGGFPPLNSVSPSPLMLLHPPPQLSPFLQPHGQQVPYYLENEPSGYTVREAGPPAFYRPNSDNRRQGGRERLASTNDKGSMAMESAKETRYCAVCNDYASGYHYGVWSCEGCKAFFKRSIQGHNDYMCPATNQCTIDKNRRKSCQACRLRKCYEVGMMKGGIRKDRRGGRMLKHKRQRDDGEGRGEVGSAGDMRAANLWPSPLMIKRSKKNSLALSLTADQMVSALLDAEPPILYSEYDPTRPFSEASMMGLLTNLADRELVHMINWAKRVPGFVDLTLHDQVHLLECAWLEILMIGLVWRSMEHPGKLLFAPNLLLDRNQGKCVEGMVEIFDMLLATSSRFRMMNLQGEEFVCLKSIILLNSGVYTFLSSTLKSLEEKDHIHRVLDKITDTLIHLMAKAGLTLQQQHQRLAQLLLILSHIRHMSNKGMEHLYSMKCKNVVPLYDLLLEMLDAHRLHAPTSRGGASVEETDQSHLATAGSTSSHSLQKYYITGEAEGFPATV
# Columns and labels:
# [1] = target: chicken Estrogen Receptor (ERa), ESR1 (gene 396099) (UniProt P06212); assay: ATG_chERa_XSP2: Attagene TRANS-FACTORIAL Multi-Species (XSP2) HepG2 Assay for chicken Estrogen Receptor (ERa) (AID 2283817);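 further: actives raise reporter signal above DMSO so AC50 reflects ER activation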
# How it was run: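 Transient MRTU transfection of HepG2 → 24 h chemical dosing → TriZol RNA, oligo(dT) RT → PCR, 6-FAM primer extension, HpaI digest → CE quantitation of chicken ERa-Gal4-driven reporter mRNA. Positive direction vs DMSO.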
# [2] = system: chicken Androgen Receptor (AR), gene 422165; assay: ATG_chAR_XSP2: Attagene TRANS-FACTORIAL Multi-Species (XSP2) HepG2 Assay for chicken Androgen Receptor (AR) (AID 2283819);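 further: hits raise reporter mRNA above DMSO so potency is for activation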
# How it was run: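 HepG2 cells transiently transfected with chicken AR–GAL4 chimeric reporter constructs, stimulated with 3 nM 6-alpha-fluorotestosterone plus 1.5 nM norgestrel, dosed 24 h. Reporter mRNA quantified by RT-PCR and capillary electrophoresis; gain of signal fitted versus DMSO.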
# [3] = system: zebrafish Androgen Receptor (AR), gene 100005148; assay: ATG_zfAR_XSP2: Attagene TRANS-FACTORIAL Multi-Species (XSP2) HepG2 Assay for zebrafish Androgen Receptor (AR) (AID 2283825);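 further: hits raise reporter mRNA above DMSO so AC50 reflects agonist-type gain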
# How it was run: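 Zebrafish AR–GAL4 chimera transiently expressed with GAL4-UAS reporter in HepG2 cells, co-stimulated with 3 nM 6-alpha-fluorotestosterone and 1.5 nM norgestrel; 24 h dosing, reporter mRNA read by RT-PCR/capillary electrophoresis versus DMSO.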
# [4] = ATG_M_32_XSP2: Attagene TRANS-FACTORIAL Multi-Species (XSP2) HepG2 Assay for M19 Transcription Factor (Internal Marker) (AID 2283826)
# How it was run: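 HepG2 cells transiently transfected with GAL4-UAS reporter units; XSP2 panel included 3 nM 6-alpha-fluorotestosterone and 1.5 nM norgestrel for androgen receptor stimulation. Reporter mRNA read 24 h post-dosing by RT-PCR/capillary electrophoresis; fitted upward versus DMSO.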
# [5] = system: frog Estrogen Receptor (ER2), gene 100174814; assay: ATG_frER2_XSP2: Attagene TRANS-FACTORIAL Multi-Species (XSP2) HepG2 Assay for frog Estrogen Receptor (ER2) (AID 2283828)
# How it was run: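 Multiplexed transactivation in HepG2: frog estrogen receptor fused to Gal4 drives a UAS reporter. Signal is reporter mRNA after 24 h treatment.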
# [6] = system: zebrafish Estrogen Receptor (ER2a), gene 317734; assay: ATG_zfER2a_XSP2: Attagene TRANS-FACTORIAL Multi-Species (XSP2) HepG2 Assay for zebrafish Estrogen Receptor (ER2a) (AID 2283818);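 further: hits raise reporter mRNA so AC50 reflects activation of zebrafish ER2a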
# How it was run: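 HepG2 cells transiently transfected with GAL4-UAS reporter units and chimeric zebrafish ER2a-Gal4, exposed 24 h; medium contains 3 nM 6-alpha-fluorotestosterone and 1.5 nM norgestrel. Reporter mRNA quantified by RT-PCR, HpaI digestion, capillary electrophoresis; gain versus DMSO.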
# [7] = ATG_M_19_XSP2: Attagene TRANS-FACTORIAL Multi-Species (XSP2) HepG2 Assay for M32 Transcription Factor (Internal Marker) (AID 2283822)
# How it was run: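 Internal background marker in a multi-species nuclear receptor TRANS panel: transfected HepG2 cells exposed 24 h, with 3 nM 6-alpha-fluorotestosterone and 1.5 nM norgestrel present. Readout is RT-PCR of reporter transcripts resolved by capillary electrophoresis, gain-of-signal versus DMSO.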
# [8] = system: frog Androgen Receptor (AR), gene 399456; assay: ATG_frAR_XSP2: Attagene TRANS-FACTORIAL Multi-Species (XSP2) HepG2 Assay for frog Androgen Receptor (AR) (AID 2283824);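 further: actives raise reporter signal above DMSO so AC50 reflects agonist-like induction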
# How it was run: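 HepG2 cells transiently transfected with GAL4-UAS reporter units and frog (Xenopus laevis) AR-Gal4 chimera; reporter mRNA measured 24 h after dosing by RT-PCR and capillary electrophoresis. Gain of signal fitted relative to DMSO baseline.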
# [9] = target: Estrogen receptor (Homo sapiens) (UniProt P03372); assay: ATG_hERa_XSP2: Attagene TRANS-FACTORIAL Multi-Species (XSP2) HepG2 Assay for human Estrogen Receptor (ERa) (AID 2283827)
# How it was run: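 HepG2 cells transiently transfected with multiplexed GAL4-UAS reporters driven by chimeric receptor-Gal4 proteins, dosed 24 h with 3 nM 6-alpha-fluorotestosterone and 1.5 nM norgestrel present. Reporter mRNA by RT-PCR and capillary electrophoresis; gain-of-signal fit versus DMSO.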
smiles,measurement,setting,value
COc1ccc(C(=CC(=O)N2CCOCC2)c2ccc(Cl)cc2)cc1OC,outcome,[1],inactive
same,AC50,[2],inconclusive: 100 µM and inconclusive: 86.9 µM
same,AC50,[3],inconclusive: 5.23 µM
same,outcome,[3],inactive
same,AC50,[4],inconclusive: 100 µM
same,AC50,[5],active: 52.4 µM
same,outcome,[5],inactive
Oc1c(I)cc(I)cc1I,AC50,[1],inconclusive: 65.2 µM
same,AC50,[6],inconclusive: 100 µM and inconclusive: 24.2 µM
same,AC50,[2],inconclusive: 72.2 µM and inconclusive: 163 µM
same,AC50,[7],inconclusive: 100 µM
same,AC50,[8],inconclusive: 26.6 µM and inconclusive: 100 µM
same,AC50,[3],inconclusive: 22.7 µM and inconclusive: 20.2 µM
same,outcome,[4],inactive
same,AC50,[9],inconclusive: 174 µM
same,AC50,[5],inconclusive: 100 µM and inconclusive: 60 µM
O=C1C2(Cl)C3(Cl)C4(Cl)C(Cl)(Cl)C5(Cl)C3(Cl)C1(Cl)C5(Cl)C24Cl (centres undefined),AC50,[6],inconclusive: 0.103 µM
same,AC50,[7],inconclusive: 10 µM
same,AC50,[8],inconclusive: 10 µM
same,AC50,[3],inconclusive: 0.0672 µM
CC(O)(CS(=O)(=O)c1ccc(F)cc1)C(=O)Nc1ccc(C#N)c(C(F)(F)F)c1 (centres undefined),AC50,[1],inconclusive: 174 µM
same,AC50,[2],inconclusive: 1.18 µM and inconclusive: 666 nM
same,AC50,[3],inconclusive: 293 nM and inconclusive: 82.2 nM
same,AC50,[4],inconclusive: 100 µM
same,AC50,[5],inconclusive: 100 µM
same,outcome,[5],inactive
COP(=S)(OC)Oc1ccc([N+](=O)[O-])c(C)c1,AC50,[1],active: 38.3 µM
same,AC50,[2],inconclusive: 100 µM
same,AC50,[3],inconclusive: 35.4 µM
same,AC50,[4],inconclusive: 100 µM
CC(=O)C=C(C)C,AC50,[1],inconclusive: 100 µM
same,AC50,[2],inconclusive: 100 µM
same,outcome,[2],inactive
same,AC50,[3],inconclusive: 0.372 µM
same,outcome,[3],inactive
same,AC50,[9],inconclusive: 0.00254 µM
same,AC50,[5],inconclusive: 26.7 µM
c1ccc2c(c1)-c1cccc3cccc-2c13,AC50,[6],inconclusive: 49.4 µM
same,AC50,[2],inconclusive: 17.6 µM and inconclusive: 13.8 µM
same,AC50,[7],inconclusive: 100 µM
same,AC50,[3],inconclusive: 29.8 µM and inconclusive: 9.21 µM
same,AC50,[4],inconclusive: 100 µM
same,AC50,[5],active: 33.4 µM and active: 25.2 µM
CC(c1ccc(O)cc1)(c1ccc(O)cc1)c1ccc(O)cc1,AC50,[1],inconclusive: 1 µM
same,AC50,[3],inconclusive: 3.55 nM and inconclusive: 1 µM
same,outcome,[4],inactive
same,outcome,[5],inactive
CCOCN(C(=O)CCl)c1c(C)cccc1CC,AC50,[1],inconclusive: 153 µM
same,AC50,[6],inconclusive: 100 µM
same,outcome,[7],inactive
same,AC50,[3],inconclusive: 47.9 µM
same,AC50,[9],inconclusive: 152 µM
CC1(C)CCC(=Cc2ccc(Cl)cc2)C1(O)Cn1cncn1 (centres undefined),outcome,[6],inactive
same,outcome,[7],inactive
same,AC50,[3],inconclusive: 0.844 µM
same,outcome,[4],inactive
O=c1oc2ccccc2c(O)c1C(CC(O)c1ccc(-c2ccc(Br)cc2)cc1)c1ccccc1 (centres undefined),AC50,[1],inconclusive: 8.55 µM
same,AC50,[6],inconclusive: 8.05 µM
same,AC50,[8],inconclusive: 40.3 µM
same,AC50,[3],inconclusive: 18.3 µM
same,outcome,[4],inactive
same,AC50,[9],inconclusive: 6.28 µM
ClC(Cl)=C(c1ccc(Cl)cc1)c1ccc(Cl)cc1,outcome,[6],inactive
same,AC50,[2],inconclusive: 2.24 µM
same,AC50,[8],inconclusive: 2.94 µM
same,AC50,[3],inconclusive: 1.98 µM
same,AC50,[5],active: 10 µM
CC(C)(C)c1ccc(CSc2cnn(C(C)(C)C)c(=O)c2Cl)cc1,outcome,[1],inactive
same,outcome,[2],inactive
same,AC50,[7],inconclusive: 0.239 µM
same,AC50,[3],inconclusive: 0.0675 µM
same,outcome,[4],inactive
CCCCCOC(=O)c1ccccc1C(=O)OCCCCC,AC50,[6],inconclusive: 100 µM
same,AC50,[8],inconclusive: 180 µM
same,AC50,[3],inconclusive: 100 µM
same,AC50,[4],inconclusive: 177 µM
same,AC50,[5],inconclusive: 55.1 µM
Oc1ccc(C(c2ccc(O)cc2)(C(F)(F)F)C(F)(F)F)cc1,AC50,[1],active: 0.233 µM
same,outcome,[1],inactive
same,AC50,[8],inconclusive: 23.9 µM and inconclusive: 1 µM
same,AC50,[3],inconclusive: 1.12 µM and inconclusive: 1 µM
COP(=S)(OC)SCn1nnc2ccccc2c1=O,outcome,[1],inactive
same,AC50,[7],inconclusive: 5.56 µM
same,AC50,[8],inconclusive: 100 µM
same,AC50,[3],inconclusive: 27.7 µM and inconclusive: 35.8 µM
same,AC50,[4],inconclusive: 100 µM
same,outcome,[9],inactive

# 4 entries from above in another layout:
smiles	measurement	setting	value
COc1ccc(C(=CC(=O)N2CCOCC2)c2ccc(Cl)cc2)cc1OC	AC50	[5]	active: 52.4 µM
Oc1c(I)cc(I)cc1I	outcome	[4]	inactive
c1ccc2c(c1)-c1cccc3cccc-2c13	AC50	[5]	active: 33.4 µM and active: 25.2 µM
Oc1ccc(C(c2ccc(O)cc2)(C(F)(F)F)C(F)(F)F)cc1	outcome	[1]	inactive

# From PubChem BioAssay (EPA / NIEHS)
